One compound from patent US20060142323A1, “Dual binding site acetylcholinesterase inhibitors for the treatment of alzheimer's disease” (priority 2002, published 2006) can be followed below.

Chains of the proteins cited; added tags and fusions are not shown. Residues count along the entry.
UniProt P23795, 31-614 isoform 2 limits assumed: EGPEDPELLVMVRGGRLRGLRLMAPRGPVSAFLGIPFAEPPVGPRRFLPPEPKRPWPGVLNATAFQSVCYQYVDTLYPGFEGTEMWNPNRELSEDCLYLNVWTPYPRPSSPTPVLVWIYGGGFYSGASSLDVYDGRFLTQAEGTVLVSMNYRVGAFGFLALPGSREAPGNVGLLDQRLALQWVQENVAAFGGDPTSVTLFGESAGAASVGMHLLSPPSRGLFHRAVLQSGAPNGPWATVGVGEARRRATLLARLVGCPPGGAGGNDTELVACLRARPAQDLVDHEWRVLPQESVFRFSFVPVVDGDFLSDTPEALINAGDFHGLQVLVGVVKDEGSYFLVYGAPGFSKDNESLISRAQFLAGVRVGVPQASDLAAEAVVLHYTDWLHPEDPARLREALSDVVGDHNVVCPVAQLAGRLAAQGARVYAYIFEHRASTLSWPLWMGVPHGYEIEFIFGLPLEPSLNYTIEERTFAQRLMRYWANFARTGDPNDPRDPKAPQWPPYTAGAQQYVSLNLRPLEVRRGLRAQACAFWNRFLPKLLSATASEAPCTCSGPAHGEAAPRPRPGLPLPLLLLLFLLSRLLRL
UniProt P22303, 32-614 limits assumed: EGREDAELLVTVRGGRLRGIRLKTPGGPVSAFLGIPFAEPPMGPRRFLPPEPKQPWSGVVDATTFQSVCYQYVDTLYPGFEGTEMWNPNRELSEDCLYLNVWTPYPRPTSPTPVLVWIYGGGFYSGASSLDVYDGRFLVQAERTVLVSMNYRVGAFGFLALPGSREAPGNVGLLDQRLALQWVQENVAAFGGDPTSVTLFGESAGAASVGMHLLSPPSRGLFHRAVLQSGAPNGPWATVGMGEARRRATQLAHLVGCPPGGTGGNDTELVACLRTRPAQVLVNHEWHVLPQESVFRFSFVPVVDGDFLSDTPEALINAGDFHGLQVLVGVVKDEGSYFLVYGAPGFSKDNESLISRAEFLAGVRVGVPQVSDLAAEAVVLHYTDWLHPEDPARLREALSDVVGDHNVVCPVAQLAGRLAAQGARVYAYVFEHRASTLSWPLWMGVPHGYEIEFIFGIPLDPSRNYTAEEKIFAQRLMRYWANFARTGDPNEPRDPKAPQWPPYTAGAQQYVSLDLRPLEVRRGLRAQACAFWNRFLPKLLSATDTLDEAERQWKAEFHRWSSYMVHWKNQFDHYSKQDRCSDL
UniProt P06276, 29-602 limits assumed: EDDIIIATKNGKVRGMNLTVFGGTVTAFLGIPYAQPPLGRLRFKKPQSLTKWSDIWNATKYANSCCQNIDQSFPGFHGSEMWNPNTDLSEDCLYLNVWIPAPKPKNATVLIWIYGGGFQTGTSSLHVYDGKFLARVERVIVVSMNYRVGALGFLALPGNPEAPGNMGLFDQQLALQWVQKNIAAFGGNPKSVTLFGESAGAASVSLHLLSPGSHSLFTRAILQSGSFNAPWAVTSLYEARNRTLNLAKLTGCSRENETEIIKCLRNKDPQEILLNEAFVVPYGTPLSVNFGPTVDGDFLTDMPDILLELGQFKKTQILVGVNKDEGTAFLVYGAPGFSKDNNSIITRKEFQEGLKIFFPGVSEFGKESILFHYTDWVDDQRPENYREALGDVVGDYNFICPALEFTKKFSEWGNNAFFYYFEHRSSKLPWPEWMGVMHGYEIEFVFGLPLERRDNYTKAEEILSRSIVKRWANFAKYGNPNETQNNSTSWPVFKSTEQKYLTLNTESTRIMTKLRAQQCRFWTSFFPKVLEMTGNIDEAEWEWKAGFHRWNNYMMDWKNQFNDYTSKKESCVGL

Series [1] has as its target AChE from bovine erythrocytes (Bos taurus, UniProt P23795). Kind of series: Acetylcholinesterase (AChE) inhibition (from bovine erythrocytes), Ellman method at 30° C., Digiscan 340T. Format: biochemical. To be noted: read-out: IC50 AchE, 5 min preincubation. Background: In Ellman's method for cholinesterases, released thiocholine reacts with DTNB.
The target in the next series is AChE peripheral site (Homo sapiens, UniProt P22303). Kind of series: Propidium competition (fluorescence). To be noted: 20 μM propidium iodide, AChE incubated at least 6 hours with compound. Format: binding.
In series [2] the test system is human neuroblastoma cell line SH—SY5Y. Kind of series: Toxicity measurement (LDH) in SH-SY5Y cells. In kind it is cell-based. The following applies: 24 hours exposure. The method, then:
The cytotoxicity effect of the molecules was tested in the human neuroblastoma cell line SH—SY5Y. These cells were cultured in 96-well plates in minimum essential medium, Han's F12 medium, supplemented with 10% fetal bovine serum, 1% glutamine and 1% penicillin/streptomycin, and grown in. a 5% CO2 humidified incubator at 37° C.
The cells were plated at 10^4 cells for each well, at least, 48 hours before the toxicity measure. Cells were exposed for 24 hours to the compounds at different concentrations (from 10^−5 to 10^−9), quantitative assessment of cell death was made by measurement of the intracellular enzyme lactate dehydrogenase (LDH) (citotoxicity detection kit, Roche). The cuantity of LDH was evaluated in a microplate reader Anthos 2010, at 492 and 620 nm. Controls were taken as 100% viability.

In a further series the target is BuChE from human serum (Homo sapiens, UniProt P06276). Kind of series: Butyrylcholinesterase (BuChE) inhibition (from human serum). The following applies: read-out: IC50 BuChE, 30° C., 10 min preincubation. Format: biochemical.

For orientation: IC50 means the midpoint of a concentration-inhibition curve.

Structures were worked out from names or drawings and are uncertain.

For `O=C1c2ccccc2C(=O)C1NCCCCCCNc1c2c(nc3ccccc13)CCCC2`, the IC50 turned out to be 500 nM in series [1] and 100 nM at BuChE from human serum. Further, on AChE peripheral site, the Propidium competition is greater than 100 µM. This compound came in with a Toxicity in series [2] of 10 µM.
